Data: PMC11201311
Results are given in words; binding and its absence hold for the method and conditions named. In cells and extracts the contact can be indirect. Some results given as binding are weak or reduced against the parent protein; the word gives no strength.

Amino acid sequences for entries named in this document (tags omitted). A change or cut given only in a name is not applied to a line headed by its entry.
UniProt P19484: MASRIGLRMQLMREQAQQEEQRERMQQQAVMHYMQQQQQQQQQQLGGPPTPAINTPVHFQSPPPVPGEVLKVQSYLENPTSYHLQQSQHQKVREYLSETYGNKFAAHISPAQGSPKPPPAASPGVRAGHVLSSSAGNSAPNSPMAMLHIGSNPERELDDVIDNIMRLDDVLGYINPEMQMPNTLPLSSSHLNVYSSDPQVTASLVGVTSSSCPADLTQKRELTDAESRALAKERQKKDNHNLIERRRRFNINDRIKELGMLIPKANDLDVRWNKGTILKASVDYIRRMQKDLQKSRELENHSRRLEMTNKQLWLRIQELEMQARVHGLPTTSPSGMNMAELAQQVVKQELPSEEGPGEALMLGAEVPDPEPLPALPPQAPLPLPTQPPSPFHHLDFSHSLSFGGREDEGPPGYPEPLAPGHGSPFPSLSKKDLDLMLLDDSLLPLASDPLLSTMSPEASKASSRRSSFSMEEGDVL
UniProt P61081: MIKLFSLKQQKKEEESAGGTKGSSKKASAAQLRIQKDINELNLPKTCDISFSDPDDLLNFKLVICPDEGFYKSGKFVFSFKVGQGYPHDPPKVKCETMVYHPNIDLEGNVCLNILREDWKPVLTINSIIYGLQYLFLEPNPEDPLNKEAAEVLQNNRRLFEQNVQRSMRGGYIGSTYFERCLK
UniProt Q14258: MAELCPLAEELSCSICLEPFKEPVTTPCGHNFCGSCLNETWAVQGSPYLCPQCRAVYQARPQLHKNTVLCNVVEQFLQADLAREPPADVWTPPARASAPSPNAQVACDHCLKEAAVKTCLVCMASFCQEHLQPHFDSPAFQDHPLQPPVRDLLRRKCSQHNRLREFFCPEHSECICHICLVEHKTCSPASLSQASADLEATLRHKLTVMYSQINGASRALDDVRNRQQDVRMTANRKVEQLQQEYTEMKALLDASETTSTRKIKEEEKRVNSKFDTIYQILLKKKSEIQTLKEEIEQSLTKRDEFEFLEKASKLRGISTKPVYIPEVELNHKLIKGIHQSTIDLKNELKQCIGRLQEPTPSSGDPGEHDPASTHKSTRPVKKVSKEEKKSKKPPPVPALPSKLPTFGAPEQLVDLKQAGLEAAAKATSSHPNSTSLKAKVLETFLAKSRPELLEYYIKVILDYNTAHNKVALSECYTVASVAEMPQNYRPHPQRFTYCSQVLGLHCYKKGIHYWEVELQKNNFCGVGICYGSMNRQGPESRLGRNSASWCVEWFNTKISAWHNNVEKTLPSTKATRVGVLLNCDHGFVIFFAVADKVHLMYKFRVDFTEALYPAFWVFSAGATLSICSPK

Assays:
[1] = molecular target: transcription factor EB (TFEB), endogenous (human (endogenous in breast cancer cells)) (UniProt P19484); assay: co-IP; MDA-MB-231 compared with PTX-resistant MDA-MB-231 cells; TRIM25-TFEB binding by Western blot
[2] = molecular target: NEDD8 conjugating enzyme UBC12, endogenous (human (endogenous in breast cancer cells)) (UniProt P61081); assay: co-IP; endogenous proteins in breast cancer cells; Co-IP buffer, antibodies with protein A/G magnetic beads overnight at 4 °C; Western blot
[3] = molecular target: transcription factor EB (TFEB), endogenous (human (endogenous in breast cancer cells)) (UniProt P19484); assay: as above
[4] = molecular target: TFEB in the co-IP with TRIM25 wild type and K117R (UniProt P19484); assay: co-IP; TRIM25 wild type or K117R and TFEB; Western blot

Row | binding [1] | binding [2] | binding [3] | binding [4] | Substance
1 | binds | binds | binds |  | E3 ubiquitin ligase tripartite motif containing 25 (TRIM25), endogenous (from UniProt Q14258 1-630) (enzyme)
2 |  |  |  | binds | TRIM25 K117R (Myc-tagged) (from UniProt Q14258 1-630) (enzyme)
3 |  |  |  | binds | TRIM25 wild type, exogenous (Myc-tagged) (from UniProt Q14258 1-630) (enzyme)
